Assay results as given in article PMC3862036.
No constants are given. Whether binding was seen depends on the method and setting. Some results given as binding are weak or reduced against the parent protein; the word gives no strength.

Molecular target: T1, BET-1 full length (C. elegans) (UniProt Q95Y80)
T1 sequence: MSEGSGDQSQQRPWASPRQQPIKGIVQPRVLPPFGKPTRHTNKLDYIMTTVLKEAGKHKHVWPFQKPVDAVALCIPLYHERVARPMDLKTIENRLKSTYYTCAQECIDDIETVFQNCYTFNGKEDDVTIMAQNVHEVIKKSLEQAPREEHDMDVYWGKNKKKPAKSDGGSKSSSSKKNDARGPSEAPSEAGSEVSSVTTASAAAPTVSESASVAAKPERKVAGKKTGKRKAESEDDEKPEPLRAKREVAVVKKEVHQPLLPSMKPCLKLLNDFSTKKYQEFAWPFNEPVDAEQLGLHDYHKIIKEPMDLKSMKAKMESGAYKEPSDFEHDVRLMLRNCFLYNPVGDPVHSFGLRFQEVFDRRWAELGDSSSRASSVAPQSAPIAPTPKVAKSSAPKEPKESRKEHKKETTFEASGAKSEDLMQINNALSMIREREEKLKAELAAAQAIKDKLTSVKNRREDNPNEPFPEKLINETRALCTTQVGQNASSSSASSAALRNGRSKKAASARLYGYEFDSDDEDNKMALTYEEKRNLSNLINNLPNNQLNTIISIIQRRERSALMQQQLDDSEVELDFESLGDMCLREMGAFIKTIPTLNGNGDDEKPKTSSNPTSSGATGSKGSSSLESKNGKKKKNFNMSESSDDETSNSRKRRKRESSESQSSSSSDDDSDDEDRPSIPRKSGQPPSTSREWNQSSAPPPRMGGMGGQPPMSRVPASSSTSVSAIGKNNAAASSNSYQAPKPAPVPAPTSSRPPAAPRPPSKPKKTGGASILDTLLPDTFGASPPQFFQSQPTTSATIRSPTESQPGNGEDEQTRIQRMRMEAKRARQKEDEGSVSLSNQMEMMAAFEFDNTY
Test: two-hybrid; yeast; BET-1 full length or fragments as pLexA-NLS baits, SMO-1 or UBC-9 as pACT preys; six serial 1:5 dilutions spotted on CSM-Leu-Trp and CSM-Leu-Trp-His, 30°C, 72 hours

binding: binds
B1: UBC-9 (enzyme, UniProt Q95017 1-166)
chain: MSGIAAGRLAEERKHWRKDHPFGFIAKPVKNADGTLNLFNWECAIPGRKDTIWEGGLYRIRMLFKDDFPSTPPKCKFEPPLFHPNVYPSGTVCLSLLDENKDWKPSISIKQLLIGIQDLLNHPNIEDPAQAEAYQIYCQNRAEYEKRVKKEAVKYAAELVQKQMLE
